Patent publication US20100298217A1 (published 2010)
Results are given in words; binding and its absence hold for the method and conditions named. Some entries that bind do so weakly or less than the wild type.

Legend:
[1] = target: T1, mouse CSF-1R C432S/C439S mutant expressed on M-/- macrophages (M-/-.C432/439SCSF-1R cells) (mouse) (UniProt P09581); experiment: cell surface CSF-1 24 h after removal of human CSF-1, FIG. 13
T1 sequence: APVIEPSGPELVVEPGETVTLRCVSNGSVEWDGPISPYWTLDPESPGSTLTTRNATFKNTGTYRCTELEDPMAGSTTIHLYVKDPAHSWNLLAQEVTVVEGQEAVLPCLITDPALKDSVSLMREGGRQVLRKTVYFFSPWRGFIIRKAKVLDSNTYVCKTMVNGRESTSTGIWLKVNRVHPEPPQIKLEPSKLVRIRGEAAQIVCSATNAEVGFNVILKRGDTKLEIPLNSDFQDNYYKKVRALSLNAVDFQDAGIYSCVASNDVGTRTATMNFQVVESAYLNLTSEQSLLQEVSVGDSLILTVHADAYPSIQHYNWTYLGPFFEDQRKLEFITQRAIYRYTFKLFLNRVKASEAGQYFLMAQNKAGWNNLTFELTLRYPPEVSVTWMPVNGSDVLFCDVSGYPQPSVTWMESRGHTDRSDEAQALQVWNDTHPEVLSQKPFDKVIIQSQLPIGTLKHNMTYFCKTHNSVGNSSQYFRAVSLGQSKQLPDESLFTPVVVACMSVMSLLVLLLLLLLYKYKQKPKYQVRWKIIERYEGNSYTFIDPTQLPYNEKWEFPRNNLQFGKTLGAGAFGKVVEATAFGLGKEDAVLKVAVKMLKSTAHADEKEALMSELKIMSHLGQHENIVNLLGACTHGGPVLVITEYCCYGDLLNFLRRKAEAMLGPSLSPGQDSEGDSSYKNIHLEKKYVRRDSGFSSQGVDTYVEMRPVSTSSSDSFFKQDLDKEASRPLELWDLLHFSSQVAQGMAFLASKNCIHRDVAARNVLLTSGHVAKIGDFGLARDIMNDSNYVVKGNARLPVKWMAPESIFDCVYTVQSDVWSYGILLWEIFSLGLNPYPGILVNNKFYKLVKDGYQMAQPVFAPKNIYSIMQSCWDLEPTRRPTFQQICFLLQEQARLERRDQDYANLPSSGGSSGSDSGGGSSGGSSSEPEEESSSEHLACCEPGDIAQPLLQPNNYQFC

[2] = target: T2, wild-type mouse CSF-1R expressed on M-/- macrophages (M-/-.WTCSF-1R cells) (mouse) (UniProt P09581); experiment: initial rate of CSF-1 binding to upregulated cells, FIG. 14
T2 sequence: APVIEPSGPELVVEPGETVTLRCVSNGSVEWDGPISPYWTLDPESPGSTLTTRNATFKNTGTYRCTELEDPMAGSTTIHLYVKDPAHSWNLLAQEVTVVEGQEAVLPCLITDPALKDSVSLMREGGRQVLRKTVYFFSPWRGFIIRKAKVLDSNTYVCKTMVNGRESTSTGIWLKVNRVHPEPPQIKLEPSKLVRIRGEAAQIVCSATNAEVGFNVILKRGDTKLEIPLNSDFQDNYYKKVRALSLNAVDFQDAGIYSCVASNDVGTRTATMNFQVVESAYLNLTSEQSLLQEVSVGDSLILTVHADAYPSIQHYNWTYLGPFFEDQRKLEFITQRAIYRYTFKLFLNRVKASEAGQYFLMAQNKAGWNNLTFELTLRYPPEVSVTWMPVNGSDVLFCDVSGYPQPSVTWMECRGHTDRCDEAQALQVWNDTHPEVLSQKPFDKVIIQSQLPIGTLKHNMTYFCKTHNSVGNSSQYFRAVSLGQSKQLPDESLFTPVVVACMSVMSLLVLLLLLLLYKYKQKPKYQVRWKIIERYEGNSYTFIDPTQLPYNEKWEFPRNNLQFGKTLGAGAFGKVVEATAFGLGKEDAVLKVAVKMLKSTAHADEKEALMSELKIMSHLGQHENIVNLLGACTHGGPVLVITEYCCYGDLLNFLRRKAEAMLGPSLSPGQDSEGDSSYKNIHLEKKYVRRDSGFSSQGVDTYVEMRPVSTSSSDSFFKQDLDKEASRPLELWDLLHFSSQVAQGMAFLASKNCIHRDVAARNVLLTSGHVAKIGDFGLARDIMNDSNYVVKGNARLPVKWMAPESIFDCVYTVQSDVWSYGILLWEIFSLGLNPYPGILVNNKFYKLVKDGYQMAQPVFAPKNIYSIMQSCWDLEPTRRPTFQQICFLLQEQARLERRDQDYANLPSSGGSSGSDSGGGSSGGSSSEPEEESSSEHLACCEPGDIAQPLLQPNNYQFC

[3] = target: T1, mouse CSF-1R C432S/C439S mutant expressed on M-/- macrophages (M-/-.C432/439SCSF-1R cells) (mouse); experiment: as above
[4] = target: T1, mouse CSF-1R C432S/C439S mutant expressed on M-/- macrophages (M-/-.C432/439SCSF-1R cells) (mouse); experiment: CSF-1 binding to cells carrying the receptor, summed up in the Discussion of Example 2

Measured: binding

B1: purified human recombinant CSF-1 (ligand, UniProt P09603 36-253, looked up)
chain: SEYCSHMIGSGHLQSLQRLIDSQMETSCQITFEFVDQEQLKDPVCYLKKAFLLVQDIMEDTMRFRDNTPNAIAIVQLQELSLRLKSCFTKDYEEHDKACVRTFYETPLQLLEKVKNVFNETKNLLDKDWNIFSKNCNNSFAECSSQDVVTKPDCNCLYPKAIPSSDPASVSPHQPLAPSMAPVAGLTWEDSEGTEGSSLLPGEQPLHTVDPGSAKQRP
notes: also called human CSF-1; colony stimulating factor-1
binds: all assays above
